# Assay results reported in PubChem BioAssay.
# The inconclusive results got no clear call from the source; some entries with a clear call stand among them for comparison. For some of these results: A potency beside an inconclusive call is a rough fit, not a confirmed value. The source made the active and inactive calls. Unless noted, cut-off not given; nearly all actives show AC50 up to about 26 µM.
# Legend:
# [1] = growth inhibition of DIPG glioma cells, dose response, cell-based, SU-DIPG-XVII, MIPE5.0, CellTiter-Glo, qHTS (AID 1347060); details: SU-DIPG-XVII viability, CellTiter-Glo ATP luminescence;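 on AC50: cells exposed to compound for 48 hours before viability readout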
# [2] = growth inhibition of DIPG glioma cells, dose response, cell-based, SU-DIPG-XIII, MIPE5.0, CellTiter-Glo, qHTS (AID 1347064; cut-off not given, nearly all actives have AC50 up to about 23 µM;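 on AC50: cells exposed to compound for 48 hours before the viability read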); details: SU-DIPG-XIII viability, CellTiter-Glo ATP luminescence
# [3] = JHH-DIPG-1 glioma cell viability, MIPE5.0 library, CellTiter-Glo luminescence, qHTS (AID 1347067); details: JHH-DIPG-1 glioma viability, CellTiter-Glo ATP luminescence;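 further: cells exposed to compound for 48 hours before readout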
# [4] = viability loss in pontine glioma line – cell-based, SU-DIPG-XXV, MIPE5.0, CellTiter-Glo, qHTS, dose response (AID 1347065); details: CellTiter-Glo ATP luminescence;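 further: cells exposed to compound for 48 hours before ATP readout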
# [5] = SU-DIPG-XXV glioma cell viability, MIPE5.0 library, qHTS (AID 1347068; cut-off not given, nearly all actives have IC50 up to about 30 µM;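 on IC50: cells exposed to compound for 48 hours before viability readout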)
# [6] = SU-DIPG-VI glioma cell viability, MIPE4.0 library, CellTiter-Glo luminescence, qHTS (AID 1347066; cut-off not given, nearly all actives have AC50 up to about 30 µM;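 further: cells exposed to compound for 48 hours before readout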); details: CellTiter-Glo ATP luminescence
# [7] = inhibitors of polyQ aggregate elongation, biochemical, solid-phase synthetic aggregates, QA3 (AID 1585; call rule not given here); details: biotin-polyQ incorporation, at 100 µM, active compounds read high
# [8] = polyglutamine aggregation reduction, turbidity readout, qthio, single concentration 25 µM screen (AID 1588; call rule not given here); details: at 25 µM, active compounds read low
# [9] = enhancers of SMN2 over SMN1 splicing, cell-based, SMN2/SMN1 luciferase reporters (AID 1598; call rule not given here); details: SMN2 vs SMN1 luciferase splicing reporter cells; at 10 µM; active compounds read high
smiles,measurement,setting,value
Cc1cc(N2CCOCC2)ccc1Nc1nc(NC2CCCCC2)c2[nH]cnc2n1,AC50,[1],active: 2.35 µM
same,AC50,[2],inconclusive: 0.661 µM [cytotoxic]
same,AC50,[3],active: 14.8 µM
Clc1cc2c(NC3CCCC3)nnc(-c3ccncc3)c2cc1Cl,AC50,[1],inconclusive: 26.3 µM [cytotoxic]
same,AC50,[2],inconclusive: 20.9 µM [cytotoxic]
same,AC50,[3],inconclusive: 18.6 µM [cytotoxic]
CN1CCN(C(=O)c2ccc(-c3ccc4c(C=O)c(O)ccc4c3)s2)CC1,AC50,[1],inconclusive: 18.6 µM [cytotoxic]
same,AC50,[2],inconclusive: 18.6 µM [cytotoxic]
same,outcome,[3],inconclusive
COC1=C(OC)C(=O)C(C/C=C(\C)CC/C=C(\C)CC/C=C(\C)CC/C=C(/C)CC/C=C(\C)CC/C=C(\C)CC/C=C(\C)CC/C=C(\C)CC/C=C(\C)CCC=C(C)C)=C(C)C1=O,AC50,[1],inconclusive: 0.332 µM [cytotoxic]
same,outcome,[2],inactive
same,outcome,[3],inactive
OC[C@H]1O[C@@H](S[C@@H]2O[C@H](CO)[C@H](O)[C@H](n3cc(-c4cccc(F)c4)nn3)[C@H]2O)[C@H](O)[C@@H](n2cc(-c3cccc(F)c3)nn2)[C@H]1O,outcome,[1],inactive
same,outcome,[2],inactive
same,AC50,[3],inconclusive: 8.33 µM [cytotoxic]
CC(C)(O)CNc1nc(Nc2ccnc(C(F)(F)F)c2)nc(-c2cccc(C(F)(F)F)n2)n1,AC50,[1],inconclusive: 20.9 µM [cytotoxic]
same,AC50,[2],inconclusive: 18.6 µM [cytotoxic]
same,AC50,[3],inconclusive: 23.5 µM [cytotoxic]
O=C(O)c1cnn(-c2nc3cc(OC(F)(F)F)c(Cl)cc3[nH]2)c1,outcome,[1],inactive
same,AC50,[2],inconclusive: 18.6 µM [cytotoxic]
same,outcome,[3],inactive
CC(=O)Nc1ccc(C(=O)NC(C)(C)C)cc1,outcome,[1],inactive
same,outcome,[2],inactive
same,AC50,[4],inconclusive: 29.5 µM
same,IC50,[5],inconclusive: 11.8 µM
COC(=O)/C=C/C(=O)N(O)CCCCNCc1ccc(COC(=O)Nc2cccc3ccccc23)cc1,AC50,[1],inconclusive: 23.5 µM [cytotoxic]
same,AC50,[2],inconclusive: 13.2 µM [cytotoxic]
same,AC50,[3],active: 18.6 µM
same,IC50,[5],inconclusive: 9.34 µM
Cc1nc(-c2cccnc2)sc1C(=O)Nc1ccccc1-c1cn2c(CN3CCOCC3)csc2n1,AC50,[1],inconclusive: 18.6 µM [cytotoxic]
same,AC50,[2],inconclusive: 0.00105 µM [cytotoxic]
same,AC50,[3],inconclusive: 23.5 µM [cytotoxic]
O=C(NCCCNc1nc(Nc2cccc(CN3CCOCC3)c2)ncc1C1CC1)C1CCC1,AC50,[1],inconclusive: 8.33 µM [cytotoxic]
same,AC50,[2],inconclusive: 4.68 µM [cytotoxic]
same,AC50,[3],inconclusive: 18.6 µM [cytotoxic]
same,IC50,[5],inconclusive: 0.00742 µM
OC(c1ccc(-c2ccc(CN3CCN(Cc4ccncc4)CC3)cc2)c(F)c1)(C(F)(F)F)C(F)(F)F,AC50,[1],inconclusive: 16.6 µM [cytotoxic]
same,outcome,[2],inactive
same,outcome,[3],inactive
CC(C)(CNC(=O)c1cccc(-c2noc(C(F)(F)F)n2)c1)c1coc(-c2ccccc2)n1,AC50,[1],inconclusive: 20.9 µM [cytotoxic]
same,AC50,[2],inconclusive: 11.8 µM [cytotoxic]
same,AC50,[3],inconclusive: 23.5 µM [cytotoxic]
C[C@H](NC(=O)CCC(F)(F)F)C(=O)N[C@@H]1C(=O)N(CCO)c2ncccc2-c2ccccc21,outcome,[1],inactive
same,AC50,[2],inconclusive: 0.00118 µM
same,AC50,[4],inconclusive: 0.00372 µM [cytotoxic]
same,IC50,[5],inconclusive: 0.00209 µM [cytotoxic]
C=CC(=O)N1CC/C(=C\c2ccc(F)c([N+](=O)[O-])c2)C(=O)/C(=C/c2ccc(F)c([N+](=O)[O-])c2)C1,AC50,[1],active: 0.0742 µM
same,AC50,[2],active: 0.059 µM
same,AC50,[3],inconclusive: 0.0934 µM [cytotoxic]
same,IC50,[5],active: 0.186 µM
CC(C)Oc1ccc(-c2nc(-c3cccc4c3CC[C@@H]4NCCO)no2)cc1C#N,AC50,[1],active: 20.9 µM
same,AC50,[2],inconclusive: 37.2 µM [cytotoxic]
same,AC50,[3],inconclusive: 29.5 µM [cytotoxic]
same,IC50,[5],inconclusive: 37.2 µM [cytotoxic]
CCNC1(C(N)=O)CCN(c2ncnc3c2nc(-c2ccccc2Cl)n3-c2ccc(Cl)cc2)CC1,AC50,[1],inconclusive: 7.42 µM [cytotoxic]
same,AC50,[2],inconclusive: 6.61 µM [cytotoxic]
same,AC50,[3],inconclusive: 20.9 µM [cytotoxic]
same,IC50,[5],inconclusive: 11.8 µM
CNC(=O)Cn1cc(-c2ccc3c(c2)C(F)CC32NC(=O)N(CC(=O)N(Cc3ccc(F)cc3)C(C)C(F)(F)F)C2=O)cn1 (stereo unspecified),AC50,[1],inconclusive: 0.00118 µM
same,AC50,[2],inconclusive: 0.0332 µM [cytotoxic]
same,outcome,[3],inactive
NC(=O)[C@H]1CCS[C@@H]2C[C@]3(CCCN3C(=O)Cc3ccc(NC(=O)COc4ccc(Cl)cc4Cl)cc3)C(=O)N12,AC50,[1],active: 4.17 µM
same,AC50,[2],inconclusive: 8.33 µM [cytotoxic]
same,AC50,[3],active: 16.6 µM
same,IC50,[5],inconclusive: 7.42 µM [cytotoxic]
Cc1cc(-c2cnn3c(NCC4CC(C)(O)C4)cc(Oc4cccnc4)nc23)ccc1C(=O)NC1CC1 (stereo unspecified),AC50,[1],inconclusive: 0.235 µM [cytotoxic]
same,outcome,[2],inactive
same,AC50,[3],inconclusive: 2.35 µM [cytotoxic]
C/C(=N\NC(=O)c1cccc(S(=O)(=O)N2CCOCC2)c1)c1cc(Cl)ccc1O,AC50,[1],active: 18.6 µM
same,AC50,[2],active: 9.34 µM
same,AC50,[3],inconclusive: 4.17 µM [cytotoxic]
C[C@@H]1CC2C3C[C@H](F)C4=CC(=O)C=C[C@]4(C)[C@@]3(F)[C@@H](O)C[C@]2(C)[C@@]1(OC(=O)c1ccco1)C(=O)SCF (stereo partly specified),AC50,[1],inconclusive: 33.2 µM [cytotoxic]
same,AC50,[2],inconclusive: 33.2 µM [cytotoxic]
same,AC50,[3],inconclusive: 41.7 µM [cytotoxic]
same,outcome,[5],inactive
Cc1ccc(-c2ccc(C)cn2)nc1,AC50,[1],inconclusive: 20.9 µM [cytotoxic]
same,AC50,[2],inconclusive: 33.2 µM [cytotoxic]
same,outcome,[3],inactive
COc1cccc(OCCCN)c1-c1cc(Nc2cnc(C#N)cn2)n[nH]1,AC50,[1],active: 0.0332 µM
same,AC50,[2],active: 0.0742 µM
same,AC50,[3],inconclusive: 1.32 µM [cytotoxic]
C[C@@H](Nc1cc(F)cc(F)c1)c1cc(C(=O)N(C)C)cc2c(=O)cc(N3CCOCC3)oc12,AC50,[1],inconclusive: 5.9 µM [cytotoxic]
same,AC50,[2],inconclusive: 14.8 µM [cytotoxic]
same,AC50,[3],inconclusive: 5.25 µM [cytotoxic]
same,IC50,[5],inconclusive: 2.95 µM [cytotoxic]
Cc1c(F)cccc1NC(=O)Nc1ccc(Cl)c(S(=O)(=O)[C@H]2CCCNC2)c1O,outcome,[1],inactive
same,outcome,[2],inactive
same,AC50,[3],inconclusive: 37.2 µM [cytotoxic]
COc1ccc(Nc2nccc(NCCO)n2)cc1,AC50,[1],inconclusive: 8.33 µM [cytotoxic]
same,outcome,[2],inactive
same,outcome,[6],inactive
same,outcome,[3],inactive
same,outcome,[5],inactive
CNc1nc(C)nc(N[C@H]2CCC[C@@H](C(=O)NCc3ccc(C#N)cc3C(F)(F)F)C2)n1,outcome,[1],inactive
same,AC50,[2],inconclusive: 0.00166 µM
same,outcome,[3],inactive
CN(C)C(=O)C(CCN1CCC(O)(c2ccc(Cl)cc2)CC1)(c1ccccc1)c1ccccc1,inhibition,[7],inconclusive: 6.73%
same,aggregation (% of control),[8],inconclusive: 118%
same,SMN2/SMN1 luciferase ratio,[9],inconclusive: 0.94
same,AC50,[6],inconclusive: 23.5 µM [cytotoxic]
CCS(=O)(=O)N1CCN(c2ccc(Nc3ncc(C(N)=O)c(NC4CC4)n3)cc2)CC1,AC50,[1],inconclusive: 13.2 µM [cytotoxic]
same,AC50,[4],active: 11.8 µM
same,AC50,[3],active: 14.8 µM
same,IC50,[5],active: 23.5 µM
Cc1ccc(-c2nc(N)nc3c2nnn3Cc2cccc(CO[C@H]3CCOC3)n2)o1,outcome,[1],inactive
same,AC50,[3],inconclusive: 10.5 µM [cytotoxic]
CC(C)Cc1ccc([C@@H](C)C(=O)NS(C)(=O)=O)cc1,outcome,[1],inactive
same,AC50,[4],inconclusive: 0.0263 µM [cytotoxic]
same,AC50,[3],inconclusive: 37.2 µM [cytotoxic]
N#Cc1ccc(-c2c(-c3ncn[nH]3)sc(N3CCOCC3)c2C#N)c(F)c1,AC50,[1],inconclusive: 5.25 µM [cytotoxic]
same,AC50,[4],active: 1.48 µM
same,IC50,[5],active: 4.68 µM
COC1=C2C[C@H](C)C[C@H](OC)[C@H](O)[C@@H](C)/C=C(/C)[C@H](OC(N)=O)[C@@H](OC)/C=C\C=C(\C)C(=O)NC(=CC1=O)C2=O,AC50,[1],active: 0.235 µM
same,AC50,[4],active: 0.417 µM
same,AC50,[3],inconclusive: 0.148 µM [cytotoxic]
same,IC50,[5],inconclusive: 33.2 µM
CCCc1c(OCCCOc2ccc(OCC(=O)O)cc2)ccc(C(C)=O)c1O,outcome,[1],inactive
same,outcome,[4],inactive
same,outcome,[3],inactive
C[N+](C)(C)CC(=O)O,outcome,[1],inactive
same,AC50,[3],inconclusive: 11.8 µM
Cn1cc(-c2cnc3ccc4ccc(CS(=O)(=O)NCc5ccccn5)cc4c(=O)c3c2)cn1,outcome,[1],inconclusive
same,AC50,[3],inconclusive: 13.2 µM [cytotoxic]
CCOC(=N)c1nc2ccc3ncnc(Nc4cc(F)c(F)cc4Cl)c3c2s1,AC50,[1],active: 16.6 µM
same,AC50,[4],active: 11.8 µM
same,IC50,[5],inconclusive: 14.8 µM [cytotoxic]
COc1cc(SC)ccc1C(=O)N1CCC(Cc2ccccc2)CC1,outcome,[1],inactive
same,outcome,[4],inactive
same,AC50,[3],inconclusive: 3.32 µM [cytotoxic]
Cc1nn(C)c2c1C(c1ccc(C(F)(F)F)cc1)C(C#N)=C(N)O2 (stereo unspecified),AC50,[1],inconclusive: 26.3 µM [cytotoxic]
same,AC50,[4],inconclusive: 26.3 µM [cytotoxic]
same,AC50,[3],inconclusive: 13.2 µM [cytotoxic]
same,outcome,[5],inactive

# Not a retest: an excerpt of the list.
smiles,measurement,setting,value
CCS(=O)(=O)N1CCN(c2ccc(Nc3ncc(C(N)=O)c(NC4CC4)n3)cc2)CC1,AC50,[3],active: 14.8 µM
same,IC50,[5],active: 23.5 µM
Cc1ccc(-c2nc(N)nc3c2nnn3Cc2cccc(CO[C@H]3CCOC3)n2)o1,outcome,[1],inactive
same,AC50,[3],inconclusive: 10.5 µM [cytotoxic]
CC(C)Cc1ccc([C@@H](C)C(=O)NS(C)(=O)=O)cc1,outcome,[1],inactive

# Random excerpt: 3 records from the list
smiles,measurement,setting,value
Cc1nn(C)c2c1C(c1ccc(C(F)(F)F)cc1)C(C#N)=C(N)O2 (stereo unspecified),AC50,[3],inconclusive: 13.2 µM [cytotoxic]
Cc1ccc(-c2nc(N)nc3c2nnn3Cc2cccc(CO[C@H]3CCOC3)n2)o1,outcome,[1],inactive
COc1ccc(Nc2nccc(NCCO)n2)cc1,outcome,[6],inactive

# Another view of part of the listing above.
smiles | measurement | setting | value
CC(C)(CNC(=O)c1cccc(-c2noc(C(F)(F)F)n2)c1)c1coc(-c2ccccc2)n1 | AC50 | [2] | inconclusive: 11.8 µM [cytotoxic]
same | AC50 | [3] | inconclusive: 23.5 µM [cytotoxic]
